This is an account of results in article PMC7819943, “Rice protein-binding microarrays: a tool to detect cis-acting elements near promoter regions in rice”.

Amino acid sequences for entries named in this document (tags omitted).
UniProt Q0JBA9, entry or part of it: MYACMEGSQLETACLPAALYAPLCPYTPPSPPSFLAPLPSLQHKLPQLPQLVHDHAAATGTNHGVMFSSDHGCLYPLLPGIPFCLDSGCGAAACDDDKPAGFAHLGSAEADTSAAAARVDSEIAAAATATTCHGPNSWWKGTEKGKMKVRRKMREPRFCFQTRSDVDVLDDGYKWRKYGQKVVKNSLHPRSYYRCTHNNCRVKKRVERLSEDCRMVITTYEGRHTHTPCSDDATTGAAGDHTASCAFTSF

Some of the results follow.

In the experiment the target is OsWRKY34 (Oryza sativa, UniProt Q0JBA9 1-250). Briefly: protein-binding microarray (RPBM); PBS, 2% BSA, 51.3 ng/ul salmon testes DNA, 50 uM zinc acetate, 200 nM TF, 25 C, 1 h; high values mean tight binding. Particulars: protein: recombinant; tags: N-terminal polyhistidine and DsRed monomer fusion (pET32a); label: CyDye5-dUTP incorporated in the synthesized complementary strand; 3' TTTTT single-stranded linker to array surface; dsDNA, one strand shown. In a few lines:
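Transcription factors, each fused N-terminally to a polyhistidine tag and DsRed, were expressed in E. coli BL21-CodonPlus and purified on Ni–NTA. A custom Agilent array was made double-stranded by primer extension with Cy5-dUTP and blocked with 2% BSA. It was incubated with 200 nM protein in PBS, 2% BSA, salmon testes DNA and 50 µM zinc acetate at 25 °C for 1 h, then washed. The binding signal is per-feature fluorescence intensity (arbitrary units) read on an Axon 4000B scanner.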
As for “TGCAATCGGCCTCCTGTCCTGCTCCTGCTCTTGCTCTTGCCGGAGTCACCTAGTGCAG”, the binding signal was 8740 fluorescence intensity (a.u.). In the case of “TGTTCGGAATTGCAGGGAGGGAGAGGGCGGTTCGTTTATTCGGAGTCACCTAGTGCAG”, the binding signal was 8910 fluorescence intensity (a.u.).

“ATATCTAACGGAAACCTGACGGGAGGGGCATGGGAGGAATCGGAGTCACCTAGTGCAG”: the binding signal is 9330 fluorescence intensity (a.u.). For “TCATTATTACTGTACTGGCCATCAGCTTTTGCTGCTAACGCGGAGTCACCTAGTGCAG”, the binding signal was 9280 fluorescence intensity (a.u.). Regarding “ATTATATGTCATTTGACTTTTCTCTTAGCTAAAGTTCTTTCGGAGTCACCTAGTGCAG”, the binding signal is 9800 fluorescence intensity (a.u.). For “GTGTGGGGCTACCTTTCTTCTCTTCGTTCCCTATCCCCTCCGGAGTCACCTAGTGCAG”, the binding signal is 9930 fluorescence intensity (a.u.).

For the sequence “GTGCTGTTCTTTAATTTACCCTGATACTTTTGGATATCTGCGGAGTCACCTAGTGCAG”, the binding signal is 10000 fluorescence intensity (a.u.). Take “ACACTCCCTAGCCACTCTCACGCCAGCGCCGCGACAACCACGGAGTCACCTAGTGCAG”: the binding signal is 10400 fluorescence intensity (a.u.). For the sequence “CTCTTTTATACTCGATCGATCGCCACTCTACCTCCATCACCGGAGTCACCTAGTGCAG”, the binding signal is 9020 fluorescence intensity (a.u.). Take “TATGGCTGGATTCCTGTGTGGTGCTGGGTCCCTCAGTGAGCGGAGTCACCTAGTGCAG”: the binding signal is 9280 fluorescence intensity (a.u.). In the case of “GCCGCAGCTTCACAAGCCTCTGCCGTGCTCGCCGCTGCTGCGGAGTCACCTAGTGCAG”, the binding signal was 8190 fluorescence intensity (a.u.). The result for “TCCGTGTCCAACGTTTGACTGTCCGTCTTATATGAAATTTCGGAGTCACCTAGTGCAG” reads 8030 fluorescence intensity (a.u.); that for “TGGAGCCTTTTGCATACACCTAACGCCTCACCGAAGGACTCGGAGTCACCTAGTGCAG”, 8150 fluorescence intensity (a.u.); that for “CGGGGCCCAACGAGGTGGCGCCGTGGCTGGTGGGGCGGGTCGGAGTCACCTAGTGCAG”, 9270 fluorescence intensity (a.u.).

Take “TCCGGTTGGATAAATAGGGCGGGTAAAAAATATCTTTCTCCGGAGTCACCTAGTGCAG”: the binding signal was 13300 fluorescence intensity (a.u.).

With “CTCCACATTAAACTAGTGCTACTACTCGTCTACTTGCCTACGGAGTCACCTAGTGCAG”, the binding signal is 8190 fluorescence intensity (a.u.). For the sequence “TCGTGCCGCATACTCTCGCCTGCTACTCCTCGCGCCCAAGCGGAGTCACCTAGTGCAG”, the binding signal is 8220 fluorescence intensity (a.u.). As to “CTCCAAATCTCATGTGCTTGTGTGTTTTTACTTTTTAGAGCGGAGTCACCTAGTGCAG”, the binding signal was 8330 fluorescence intensity (a.u.).

For “TCTCCCGCTTCCTTCTCCGCTTCCGCCCGCATCTCTCTCCCGGAGTCACCTAGTGCAG”, the binding signal was 12600 fluorescence intensity (a.u.).

For “TATTCCCTTACTAGATCTTCTATATATCTTAATTAACGTTCGGAGTCACCTAGTGCAG”, the binding signal is 8070 fluorescence intensity (a.u.). With “GACTGAAATGCTACTCAAATCTCCGTTTCCTCGTCAACTCCGGAGTCACCTAGTGCAG”, the binding signal is 10100 fluorescence intensity (a.u.).

In the case of “AACTTTTTTTTTGTTGGTTGTTGGGATGAACCTTTTCTTTCGGAGTCACCTAGTGCAG”, the binding signal is 9500 fluorescence intensity (a.u.). Take “GTCTCCGCTGTCTCGCACAGACTTCTTTCTCTCTACTCTTCGGAGTCACCTAGTGCAG”: the binding signal is 12500 fluorescence intensity (a.u.). The result for “CTATCTCTCTCATCTGATTCCTACGTTTTTCCTGCGCTCCCGGAGTCACCTAGTGCAG” reads 8330 fluorescence intensity (a.u.).

Turning to “GTTTTGGATGTGACGTGATGTGATGAAAAGTTGGAAGTTTCGGAGTCACCTAGTGCAG”, the binding signal is 8400 fluorescence intensity (a.u.). The result for “ACAGCTTCCATATGTCCGCTTCAGCTTTCTCTCCATACTACGGAGTCACCTAGTGCAG” reads 10600 fluorescence intensity (a.u.). In the case of “TTTTAAGTATAATTTCTCTATAATTTGACAATGTGGTGCTCGGAGTCACCTAGTGCAG”, the binding signal is 8550 fluorescence intensity (a.u.). The result for “CTCTCTCCTCTCCGCCTCGCTTCGCCGTCTCTTTTCCTTTCGGAGTCACCTAGTGCAG” reads 11000 fluorescence intensity (a.u.); that for “CCAAACCCTAGCCGCCTCTCGTTTCTTCTCGTCCTCTCCACGGAGTCACCTAGTGCAG”, 12000 fluorescence intensity (a.u.); that for “CCTTTAGCCACTGCCACAAGCACTACCGGCACCACCATAGCGGAGTCACCTAGTGCAG”, 8260 fluorescence intensity (a.u.).

On to “CATCCAATCTGCATGCCGGTTTTTGCATCTTTTGTATGGACGGAGTCACCTAGTGCAG”, for which the binding signal was 8590 fluorescence intensity (a.u.). The result for “GCCACACACTTCTTCCACACTTCACGCACCTAGGGTTTCGCGGAGTCACCTAGTGCAG” reads 8280 fluorescence intensity (a.u.); that for “CCTCCTGGCCTCAAACTAACCTGCATCTTCGTCGACGCGCCGGAGTCACCTAGTGCAG”, 9370 fluorescence intensity (a.u.). Take “TTTTGAGTGCTTTTATTTCTTTATTTCTTTATTTCTTTATCGGAGTCACCTAGTGCAG”: the binding signal is 9320 fluorescence intensity (a.u.).

As to “GTTGTTTTTTTTGGCCTTTGTTTCCACTGCTTCCCGAGTTCGGAGTCACCTAGTGCAG”, the binding signal was 10200 fluorescence intensity (a.u.).

Take “GCCACTCTTCACCCACCATCCCAGTGCCGATCCAACCGAGCGGAGTCACCTAGTGCAG”: the binding signal is 8340 fluorescence intensity (a.u.).

Take “GATACCACCCAAAACCGACCCTTACAACCGACATAAAACCCGGAGTCACCTAGTGCAG”: the binding signal is 8410 fluorescence intensity (a.u.).

“TCATCTACCTTGTCCACTCCTCTGCACCGGGCGCCGCGCCCGGAGTCACCTAGTGCAG”: the binding signal is 9810 fluorescence intensity (a.u.). Regarding “AAAGTTCTCTCTTTGCCCTTTTCCTTTTAGCAATAGCTTTCGGAGTCACCTAGTGCAG”, the binding signal is 8530 fluorescence intensity (a.u.).

In the case of “CCCCTTGACACTGCCTTTGATGCTCGGCTCTAGCGGTCTTCGGAGTCACCTAGTGCAG”, the binding signal is 8370 fluorescence intensity (a.u.). For “ATAATCCTTGTCTTATGTTTGCTTGATGTCGTACTACGTACGGAGTCACCTAGTGCAG”, the binding signal is 9970 fluorescence intensity (a.u.). In the case of “ATATTTGTGTAACCGCAATGTACGCTACTTGCAATCTACTCGGAGTCACCTAGTGCAG”, the binding signal was 8630 fluorescence intensity (a.u.).

“ATATTTGGTTTTTTTTCGTACTTTTTTTCGCCCGGTTTTTCGGAGTCACCTAGTGCAG”: the binding signal is 20800 fluorescence intensity (a.u.).

Consider “ACTGTTGGTACTTCTTTGGAAAATATGCTGTTGAACTTGTCGGAGTCACCTAGTGCAG”, for which the binding signal is 8970 fluorescence intensity (a.u.). Turning to “CCCAACCATCAGCAACAATTGCTTCGGCCCAACAACATTCCGGAGTCACCTAGTGCAG”, the binding signal is 9460 fluorescence intensity (a.u.). As for “ATCGCTCCACCCACCGCCCGCAATCGCTCCGTCCACCGCCCGGAGTCACCTAGTGCAG”, the binding signal was 8470 fluorescence intensity (a.u.). The result for “GCAATGATGTGGACTTGTTGAGCCGCCGGCGCCAACATTTCGGAGTCACCTAGTGCAG” reads 9010 fluorescence intensity (a.u.).

Regarding “TCCACCTTTTTACATACTTATCTGTCTTCGTCAGTATTCACGGAGTCACCTAGTGCAG”, the binding signal was 12000 fluorescence intensity (a.u.). In the case of “GCGGCGCGGCGGGGAGGAGGGAGGGGTGGCGTTGAGGTGGCGGAGTCACCTAGTGCAG”, the binding signal is 19300 fluorescence intensity (a.u.). Consider “TTATAACATGTTTTGACTTTGATTAAAGTCAAACTACTTCCGGAGTCACCTAGTGCAG”, for which the binding signal is 14100 fluorescence intensity (a.u.). The result for “CTAACACATTCATCACATGATTAAAATTTTATTATTTATACGGAGTCACCTAGTGCAG” reads 8510 fluorescence intensity (a.u.); that for “CTCCCATGCAAACTCTACCTATCTCTGTACCTTCACGCATCGGAGTCACCTAGTGCAG”, 8870 fluorescence intensity (a.u.); that for “CCGCCGCCGCCGCCGCCGCCGCCTCCGATGTCCTCGCCGGCGGAGTCACCTAGTGCAG”, 10800 fluorescence intensity (a.u.). For the sequence “TTATACCTTTTTCCTCAACGATTCCACAATCACATTTGCCCGGAGTCACCTAGTGCAG”, the binding signal was 9710 fluorescence intensity (a.u.).
